From publication PMC10890620 come the findings set out here.

The assay concerns the target T1, HA-tagged mouse tyrosinase (mouse) (UniProt P11344).
T1 sequence: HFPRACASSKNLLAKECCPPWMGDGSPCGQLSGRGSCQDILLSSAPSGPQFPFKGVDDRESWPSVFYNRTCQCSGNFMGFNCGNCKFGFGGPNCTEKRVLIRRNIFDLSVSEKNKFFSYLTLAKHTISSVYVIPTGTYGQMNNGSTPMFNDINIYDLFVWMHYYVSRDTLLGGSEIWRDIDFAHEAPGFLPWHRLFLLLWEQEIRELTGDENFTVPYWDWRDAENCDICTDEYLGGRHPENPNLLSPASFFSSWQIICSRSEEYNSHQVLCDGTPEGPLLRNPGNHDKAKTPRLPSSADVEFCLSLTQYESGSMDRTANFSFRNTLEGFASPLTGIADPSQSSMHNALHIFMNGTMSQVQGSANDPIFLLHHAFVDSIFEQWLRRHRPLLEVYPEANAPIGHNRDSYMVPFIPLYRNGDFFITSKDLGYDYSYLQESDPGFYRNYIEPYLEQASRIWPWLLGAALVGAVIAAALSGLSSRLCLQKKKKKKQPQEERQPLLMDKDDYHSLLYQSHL
The assay is described as follows: co-IP; HEK293T cells cotransfected; lysis in TBS-T (50 mM Tris-HCl pH 7.5, 0.15 M NaCl, 1% Triton X-100, 0.5% deoxycholic acid); IP with anti-HA antibody on protein A Sepharose overnight at 4 °C; blot with anti-myc.

These are yes or no findings as the source states them, for the method shown. In cells and extracts the contact can be indirect. A result given as binding can be weak or reduced; the word gives no strength. Sequences can lack the tags named with a protein.

Consider myc-tagged RNF152, wild type (enzyme), for which the binding result is on record as “binds”.
